# Results are given in words; binding and its absence hold for the method and conditions named.
# Target: MOKV G_(1-436)* (soluble Mokola virus glycoprotein G ectodomain, fusion loops replaced by hydrophilic sequences) (Mokola virus) (UniProt P0C572)
# Test: crystal structure; both purified
substance,measurement,value
"MOKV G_(1-436)* (soluble Mokola virus glycoprotein G ectodomain, fusion loops replaced by hydrophilic sequences) (from UniProt P0C572 20-455) (domain or fragment)",binding,no binding
